Assay results taken from PubChem BioAssay AID1347076 (National Center for Advancing Translational Sciences (NCATS), 2019).
“And” between values parts separate entries of the source, which are not always exact repeats. Equal values may be shown once. The whole screen tested about 400,000 compounds, of which about 13,000 (3.2%) were called active. Inconclusive means that the source gave no clear call. Such entries were picked first, then a sample of the others. The call rests on the fitted dose curve; in most records, active means well fitted cell-killing curve with a large enough effect; inconclusive means small, poorly fitted or top-dose-only effect, or effect the other way; inactive means flat fitted curve, though single readings scatter. A potency beside an inconclusive call is a rough fit, not a confirmed value.

assay: qHTS assay for MDR1-selective chemotherapeutics: Primary screen using the drug-selected MDR subline cells KB-V1; conditions: KB-V1 MDR cells viability, CellTiter-Glo, 72 h; activity change, negative = cytotoxicity: at 46.1 µM (top of the series); further: nearly all actives have a fitted effect of over 60% in size
Summary of the method: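 KB-V1, DMEM (no phenol red) + 10% FBS; cpd pin-transferred, titration series; 72 h, 37 degrees C; CellTiter-Glo, luminescence. Data normalized, curve-fit.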
On the % scale 0 is the no-effect control and ±100 the full control effect; potency means the concentration at half of the fitted maximal effect.

SMILES	Potency	activity change, negative = cytotoxicity
CCCC[C@@H](CN[C@H](C)CNC)NCC1CCC(C(C)(C)C)CC1 (stereo partly drawn)	inconclusive: 29.1 µM [cytotoxic, single point]	–
CC(=O)Nc1cc(-c2cccc(C(=O)N(C)C)c2)cn2c(-c3ccc(F)c(Cl)c3)cnc12	inconclusive: 23.1 µM [cytotoxic, partial curve, poor fit]	–
CCN(CC)CCCNC(=O)c1ccc2nc(CCc3ccccc3)oc2c1	inactive	–
CN(C)S(=O)(=O)c1cccc(NC(=O)c2cc(-c3cccs3)nc3ccccc23)c1	inconclusive: 6.51 µM [cytotoxic, partial curve]	–
CCSc1nnc(NC(=O)c2ccccc2C)s1	inconclusive: 14.6 µM [cytotoxic, partial curve, poor fit]	–
CCOC(=O)C1=C(C)NC(=O)NC1c1ccc(OC)c(Cl)c1 (stereo not drawn)	active: 20.6 µM	–
Fc1ccccc1CSc1nnc(-c2cnccn2)n1Cc1ccco1	active: 18.4 µM	–
COc1cc(NS(=O)(=O)c2ccc(NC(=S)NC(=O)c3sc4cc(F)ccc4c3Cl)cc2)nc(OC)n1	inconclusive: 18.4 µM [cytotoxic, single point]	–
N#Cc1ccc(C(=O)OCC(=O)N2CCN(C(=O)c3ccco3)CC2)cc1	inactive	–
O=C(Nc1ccc2c(c1)N(C1CCCC1)C(=O)c1ccccc1S2)c1ccc(F)cc1	inconclusive: 5.17 µM [cytotoxic, full curve]	–
O=C(COc1ccc(-c2ccccc2)cc1)N1CCN(S(=O)(=O)Cc2ccccc2)CC1	active: 4.61 µM	–
CCN1CCCC1CNC(=O)C(=O)NC (stereo not drawn)	inactive	–
Cc1nc2c(C)cccc2c2c1COC2	inconclusive: 2.59 µM [rising, partial curve, poor fit]	–
CCCn1c(N2CCN(C(=O)Nc3ccc(Cl)cc3)CC2)nc2ccccc21	inconclusive: 29.1 µM [cytotoxic, single point]	–
CCN(CC)c1ccc(NC(=O)C2COc3ccc(OC)cc3C2)c(C)c1 (stereo not drawn)	inconclusive: 5.8 µM [cytotoxic, full curve, poor fit]	–
CCCOc1ccc(OCCNC2CCCC2)cc1	active: 23.1 µM	–
O=C(CN1CCOCC1)Nc1cc(C(F)(F)F)ccc1Cl	inconclusive: 16.4 µM [cytotoxic, single point]	–
CC1(C(=O)NS(=O)(=O)Cc2cccc(Cl)c2)CCN1C(=O)Cc1ccccc1 (stereo not drawn)	inactive	–
C(=NNc1nnn(Cc2ccccc2)n1)c1ccccc1	active: 16.4 µM	–
CCc1ccc(C(=O)COC(=O)c2cnccn2)cc1	inconclusive: 9.2 µM [rising, partial curve, poor fit]	–
O=C(Nc1ncc(Cc2cccc(C(F)(F)F)c2)s1)c1ccc(-c2cccc([N+](=O)[O-])c2)o1	inconclusive: 3.66 µM [cytotoxic, full curve]	–
CCOC(=O)C1(CCOc2ccccc2)CCN(Cc2ccc(O)c(Cl)c2)CC1	inactive	–
Cc1cc(N/N=C\c2ccc(Br)cc2)nc(-n2nc(C)cc2C)n1	inconclusive: 23.1 µM [cytotoxic, single point]	–

SMILES	Potency	activity change, negative = cytotoxicity
Cc1cc(C)cc(N(CC(=O)Nc2ccc(-c3nc4ccc(C)cc4s3)cc2)S(C)(=O)=O)c1	inconclusive: 13 µM [cytotoxic, partial curve]	–
CCCCNc1c(-c2ccc(OC)c(SC(C)CC)c2)nc2ccc(C)cn12 (stereo not drawn)	active: 18.4 µM and inconclusive: 20.6 µM [cytotoxic, single point]	–
Cc1cccc(C)c1NC(=S)NCCSc1ccc(Cl)cc1	inconclusive: 20.6 µM [cytotoxic, single point]	–
Cc1ccc(C)c(/C=C/C(=O)c2ccccc(=O)c2O)c1	active: 8.2 µM	–
CC[C@H](C)[C@H](NC(=O)OCc1ccccc1)C(=O)Nc1ccc(NC(C)=O)cc1	inactive	–
COc1ccccc1-c1cc(C(=O)Nc2cc(Cl)ccc2O)no1	inconclusive: 29.1 µM [rising, single point]	–
C=CCn1c(SCc2csc(-c3ccc(Cl)cc3)n2)nnc1-c1ccccc1OC	active: 20.6 µM	–
Cc1cc(C)c(C#N)c(N2CCN(Cc3ccc4c(c3)OCO4)CC2)n1	inconclusive: 29.1 µM [cytotoxic, single point]	–
CC(=O)c1c(C)[nH]c(C(=O)OCC(=O)NCCc2ccc(F)cc2)c1C	inconclusive: 20.6 µM [cytotoxic, partial curve, poor fit]	–
CCOC(=O)CSc1nc2c(sc3ccc([N+](=O)[O-])cc32)c(=O)n1Cc1ccco1	inconclusive: 18.4 µM [cytotoxic, partial curve, poor fit]	–
CN(Cc1ccccc1F)c1nc(-c2cccnc2)nc2ccccc12	inconclusive: 8.2 µM [cytotoxic, partial curve, poor fit]	–
CC1(C(=O)O)CCC(C(=O)Nc2ccc(OC(F)(F)Cl)cc2)C1(C)C (stereo not drawn)	inconclusive: 0.731 µM [rising, full curve, poor fit]	–
Cc1nn(Cc2c(F)c(F)c(F)c(F)c2F)c(C)c1NC(=O)c1ccc(COc2ccccc2Cl)cc1	inconclusive: 0.326 µM [cytotoxic, full curve, poor fit]	–
CCOC(=O)c1sc(=NC(=O)c2ccccc2Br)n(C)c1C	inconclusive: 1.84 µM [rising, full curve, poor fit]	–
Cc1ccc(-c2nnc(NC(=O)c3ccco3)o2)c(C)c1	inconclusive: 20.6 µM [cytotoxic, partial curve]	–
N#CNC(=Nc1cccc(F)c1)SCc1cccc(F)c1	inconclusive: 29.1 µM [cytotoxic, partial curve, poor fit]	–
O=C(CN1CCC(n2nnc3cc(F)ccc32)CC1)NC1CC1	inconclusive: 18.4 µM [cytotoxic, partial curve]	–
CSc1nnc2n(-c3ccccc3)c(=O)c3c4c(sc3n12)CCC4	inconclusive: 18.4 µM [cytotoxic, partial curve, poor fit]	–
COc1ccc(-c2nc(CS(=O)CC(=O)NCc3ccc(Cl)cc3)c(C)o2)cc1OC (stereo not drawn)	inactive	–
CO/N=C/c1cccn1-c1nccc(OC)c1C#N	–	inconclusive: -32.2%
CCN1CCN(C(CNS(=O)(=O)c2ccc(C)cc2)c2ccccc2)CC1 (stereo not drawn)	–	inconclusive: -32.8%
COC(=O)c1ccc(N=Cc2c(-c3ccccc3)[nH][nH]c2=O)cc1	inconclusive: 18.4 µM [rising, single point]	–
O=C(Nc1nc2ccccc2[nH]1)c1cc2ccccc2o1	inactive	–

Quoted from the listing:
Potency, `CC1(C(=O)O)CCC(C(=O)Nc2ccc(OC(F)(F)Cl)cc2)C1(C)C` (stereo not drawn) is entered as inconclusive: 0.731 µM [rising, full curve, poor fit]
Potency, `Cc1cccc(C)c1NC(=S)NCCSc1ccc(Cl)cc1` is entered as inconclusive: 20.6 µM [cytotoxic, single point]
Potency, `Cc1nn(Cc2c(F)c(F)c(F)c(F)c2F)c(C)c1NC(=O)c1ccc(COc2ccccc2Cl)cc1` is entered as inconclusive: 0.326 µM [cytotoxic, full curve, poor fit]

Continued.

SMILES	Potency	activity change, negative = cytotoxicity
CN(CC(=O)Nc1c(Cl)cccc1Cl)C(=O)c1ccc2ccccc2n1	inactive	–
CSc1nn(Cc2ccc(Br)cc2)c(N(C(C)=O)C(C)=O)c1S(=O)(=O)c1ccccc1	inconclusive: 29.1 µM [cytotoxic, single point]	–
CC(C)NC(=O)C1C(c2ccc(C(F)(F)F)cc2)=Nc2ccccc2N1C(=O)c1ccco1 (stereo not drawn)	inconclusive: 4.61 µM [cytotoxic, partial curve, poor fit]	–
Nc1cc(N2CCCC2)c(Cl)cc1[N+](=O)[O-]	active: 8.2 µM	–
CCN(CC)C(=O)c1cc2c(=O)oc3ccccc3c2s1	inconclusive: 29.1 µM [cytotoxic, single point]	–
O=c1[nH][nH]c2c1[C@H](c1ccc(Cl)cc1)O[C@H](C1CCCC1)C2	inactive	–
CC1C(=O)N2CCCc3cc(S(=O)(=O)Nc4ccccc4F)cc1c32 (stereo not drawn)	inconclusive: 16.4 µM [cytotoxic, partial curve, poor fit]	–
COc1ccc(NC(=O)CNC(=O)Cn2cnc3sc4c(c3c2=O)CCCC4)cc1OC	inconclusive: 18.4 µM [rising, partial curve, poor fit]	–
COc1ccc(-c2cc(C(=O)NCc3ccccc3)c3c(-c4ccccc4)[nH]nc3n2)cc1	inconclusive: 18.4 µM [rising, partial curve, poor fit]	–
O=c1c2ccccc2nc(-c2cccc(Cl)c2)n1O	inconclusive: 18.4 µM [cytotoxic, single point]	–
COc1cccc(S(=O)(=O)Nc2cccc(C(=O)N3CCCCCC3)c2)c1	active: 14.6 µM	–
Cc1csc2ncc(C(=O)Nc3ccccc3Cl)c(=O)n12	inconclusive: 13 µM [rising, partial curve]	–
COc1ccc(C(=O)CCN2CCc3cc(OC)c(OC)cc3C2)cc1	inactive	–
O=C(NCC(c1ccco1)N1CCc2ccccc21)C(=O)Nc1ccccc1F (stereo not drawn)	active: 16.4 µM	–
Cc1ccc(-c2nn(CCC(=O)Nc3cccnc3)c(=O)c3ccccc23)cc1	inconclusive: 13 µM [cytotoxic, partial curve]	–
CCCCSc1nnc([C@H](CC(C)C)NC(=O)OC(C)(C)C)o1	inactive	–
CC(=O)c1ccc(NC(=O)c2cc(-c3ccc(Cl)c(Cl)c3)on2)cc1	inconclusive: 23.1 µM [rising, partial curve, poor fit]	–
COc1cc(Cl)c(C)cc1NC(=O)CSc1nnc(-c2cccnc2)n1Cc1ccco1	inconclusive: 11.6 µM [cytotoxic, partial curve, poor fit]	–
CCCN(CC(=O)Nc1ccccc1OC)C(=O)c1ccc(S(=O)(=O)NCc2ccco2)cc1	inactive	–
Cc1oc2ncn(CC(C)C)c(=O)c2c1C(=O)NCCCN(Cc1ccccc1)C(C)C	inconclusive: 16.4 µM [cytotoxic, single point]	–
Cc1ccccc1NC(=O)C(c1ccccc1)C1CCCC1 (stereo not drawn)	inconclusive: 16.4 µM [cytotoxic, single point]	–
CC(C)C(C)NC(=O)CSc1nnc(-c2c[nH]c3ccccc23)o1 (stereo not drawn)	inconclusive: 18.4 µM [cytotoxic, single point]	–
